Measured values reported in patent US20100151524A1 (DARWIN DISCOVERY, published 2010).
Results are given in words; binding and its absence hold for the method and conditions named. Some entries that bind do so weakly or less than the wild type.

Chains of the proteins cited; added tags and fusions are not shown. Lines headed by an entry give the natural chain unless they say otherwise; changes in a name come on top.
UniProt Q9BQB4: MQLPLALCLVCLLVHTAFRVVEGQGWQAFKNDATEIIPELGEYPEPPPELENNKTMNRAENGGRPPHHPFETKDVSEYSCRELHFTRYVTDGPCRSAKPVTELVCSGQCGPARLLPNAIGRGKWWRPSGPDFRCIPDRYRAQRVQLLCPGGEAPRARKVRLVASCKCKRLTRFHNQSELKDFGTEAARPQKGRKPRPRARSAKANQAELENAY

Experiments:
[1] = molecular target: T1, BMP-6 (UniProt P22004 382-513, limits assumed); test: immunoprecipitation on FLAG affinity matrix, western blot
T1 sequence (looked up): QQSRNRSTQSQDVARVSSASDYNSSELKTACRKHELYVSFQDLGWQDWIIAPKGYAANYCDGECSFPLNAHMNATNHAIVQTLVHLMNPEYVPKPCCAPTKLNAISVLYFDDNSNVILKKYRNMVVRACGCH

[2] = molecular target: T1, BMP-6; test: anti-FLAG immunoprecipitation of FLAG-tagged Beer incubated with BMP-6, anti-BMP-6 western blot

Substance: FLAG epitope-tagged Beer (human Beer, secretion signal removed, C-terminal FLAG tag, from baculovirus-infected SF9 cells) (from UniProt Q9BQB4 24-213)
- binding [1]: binds
- binding [2]: binds
